According to article PMC6021376:
No constants are given. Whether binding was seen depends on the method and setting. In cells and extracts the contact can be indirect. Some entries that bind do so weakly or less than the wild type.

Chains of the proteins cited; added tags and fusions are not shown.
UniProt P23804: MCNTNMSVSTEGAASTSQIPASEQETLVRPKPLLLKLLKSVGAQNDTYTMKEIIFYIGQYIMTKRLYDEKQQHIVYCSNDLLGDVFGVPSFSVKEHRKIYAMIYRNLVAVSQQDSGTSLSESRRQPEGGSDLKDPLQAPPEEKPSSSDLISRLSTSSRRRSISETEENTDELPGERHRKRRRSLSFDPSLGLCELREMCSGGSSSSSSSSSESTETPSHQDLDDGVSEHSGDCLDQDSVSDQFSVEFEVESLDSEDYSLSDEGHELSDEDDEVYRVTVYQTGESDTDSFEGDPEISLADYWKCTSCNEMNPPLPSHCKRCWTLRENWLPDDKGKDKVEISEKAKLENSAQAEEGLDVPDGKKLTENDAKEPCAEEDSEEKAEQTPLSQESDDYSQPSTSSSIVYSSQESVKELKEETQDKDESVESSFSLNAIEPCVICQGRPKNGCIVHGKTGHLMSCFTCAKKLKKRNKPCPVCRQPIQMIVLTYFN
UniProt O09106: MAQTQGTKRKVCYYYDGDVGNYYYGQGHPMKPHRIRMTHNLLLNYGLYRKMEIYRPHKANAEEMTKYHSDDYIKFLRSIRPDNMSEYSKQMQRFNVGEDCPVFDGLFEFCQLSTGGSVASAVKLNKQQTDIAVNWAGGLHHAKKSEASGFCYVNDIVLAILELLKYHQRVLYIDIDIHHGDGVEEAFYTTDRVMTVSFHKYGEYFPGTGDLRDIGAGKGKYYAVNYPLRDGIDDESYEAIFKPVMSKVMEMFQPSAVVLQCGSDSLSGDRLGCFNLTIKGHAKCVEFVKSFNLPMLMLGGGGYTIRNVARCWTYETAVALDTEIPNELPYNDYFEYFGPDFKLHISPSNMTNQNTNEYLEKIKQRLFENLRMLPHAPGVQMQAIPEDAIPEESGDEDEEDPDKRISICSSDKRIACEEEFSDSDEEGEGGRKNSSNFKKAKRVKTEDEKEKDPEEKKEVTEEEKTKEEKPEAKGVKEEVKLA

Biological target: MDM2 (mouse (endogenous in NPCs from the dentate gyrus)) (UniProt P23804)
Assay: co-IP; Pierce Co-IP kit; monoclonal antibody against HDAC1 or MDM2 coupled to AminoLink Plus resin, IgG as negative control; pre-cleared NPC lysate (1 mg protein) in 25 mM Tris, 150 mM NaCl, 1 mM EDTA, 1% NP-40, 5% glycerol, pH 7.4; 4 °C for 2 h; blots probed with anti-MDM2 or anti-HDAC1

binding: binds
Substance: histone deacetylase HDAC1 (from UniProt O09106 1-482)
